According to PubChem BioAssay AID720504 (National Center for Advancing Translational Sciences (NCATS), 2013):
Among all 360,000 compounds or so, about 10,000 (2.8%) were called active. The shares of active, inactive and inconclusive entries below differ from those in the screen. The call rests on the fitted dose curve; in most records, active means well fitted inhibition curve with a large enough effect; inconclusive means small, poorly fitted or top-dose-only effect; inactive means flat fitted curve, though single readings scatter. Potencies beside an inconclusive call are fits to weak or partial responses and may not hold up.

Sequences of proteins named here, by UniProt entry; tags and fusion partners are left off.
UniProt P53350, whole entry, looked up: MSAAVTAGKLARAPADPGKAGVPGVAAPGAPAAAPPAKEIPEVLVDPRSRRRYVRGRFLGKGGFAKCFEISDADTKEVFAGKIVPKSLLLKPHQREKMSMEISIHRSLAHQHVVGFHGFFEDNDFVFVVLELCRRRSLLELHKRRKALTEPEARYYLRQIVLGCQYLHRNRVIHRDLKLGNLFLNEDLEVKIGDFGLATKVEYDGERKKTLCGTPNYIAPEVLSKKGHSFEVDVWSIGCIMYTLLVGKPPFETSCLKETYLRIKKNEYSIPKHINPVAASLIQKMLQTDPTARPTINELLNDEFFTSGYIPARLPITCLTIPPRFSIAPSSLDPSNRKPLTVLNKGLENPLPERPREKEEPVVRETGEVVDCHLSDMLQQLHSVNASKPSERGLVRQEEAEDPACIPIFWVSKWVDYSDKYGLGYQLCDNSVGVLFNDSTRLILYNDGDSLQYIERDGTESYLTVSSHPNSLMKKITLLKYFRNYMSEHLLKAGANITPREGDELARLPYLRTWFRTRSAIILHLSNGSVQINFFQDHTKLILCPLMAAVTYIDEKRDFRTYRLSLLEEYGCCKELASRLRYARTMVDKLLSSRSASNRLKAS

target: Serine/threonine-protein kinase PLK1 (Homo sapiens) (UniProt P53350); test: qHTS for Inhibitors of PLK1-PDB (polo-like kinase 1 - polo-box domain): Primary Screen; details: Plk1 PBD binding of FITC phosphopeptide, fluorescence polarization; further: nearly all actives have a fitted effect of over 65% in size; on max response, negative = inhibition: series mostly up to about 57 µM
On the % scale 0 is the no-effect control and ±100 the full control effect; potency means the concentration at half of the fitted maximal effect.

Which max response, negative = inhibition does the source give for `COc1cc(/C=C2\SC(N3CCc4ccccc4C3)=NC2=O)cc(OC)c1OC` here?
Its max response, negative = inhibition is inactive: -7.04%.

`CC(C)(C)/C(O)=C/c1nc2ccccc2oc1=O` was tested. Which Potency did it give?
The Potency was inconclusive: 37.7 µM [inhibitor, single point].

How did the max response, negative = inhibition turn out when `COC1CCN(C(=O)c2ccc3oc(Cc4ccc(Cl)cc4)nc3c2)CC1` was run?
The max response, negative = inhibition was inactive: -16.8%.

`O=C(NCCCN1CCCC1=O)c1ccc2c(c1)NC(=O)C(N1CCOCC1)S2` (stereo unspecified) was tested. Which max response, negative = inhibition did it give?
Its max response, negative = inhibition is inactive: -8.2%.

For `O=C(c1cc(F)ccc1F)C1CCCN(C(=O)CCN2CCCCO2)C1` (stereo unspecified), which Potency is on record?
Its Potency is inconclusive: 13.4 µM [inhibitor, partial curve].

`COc1ccc(C)cc1NC(=O)C(OC(=O)c1ccc([N+](=O)[O-])o1)c1ccccc1` (stereo unspecified) was tested. Which Potency did it give?
Its Potency is active: 26.7 µM.

With `Cc1ccc(S(=O)(=O)n2c3ccc(Cl)cc3c3nc(C)sc32)cc1` as the compound, how does the Potency read?
Its Potency is active: 26.7 µM.

With `CC(=O)N(C(C)=O)c1nc2nc(C)cc(C)n2n1` as the compound, how does the Potency read?
Its Potency is inconclusive: 29.9 µM [inhibitor, partial curve].

Which Potency does the source give for `Cc1ccc(NC(=O)CSc2nnc([C@@H]3CCCN3C(=O)OC(C)(C)C)o2)c(C)c1` here?
Its Potency is inconclusive: 26.7 µM [inhibitor, single point].

`Cc1cc(=O)[nH]c(SCc2nnnn2-c2ccc(Cl)cc2)n1` was tested. Which Potency did it give?
Its Potency is inconclusive: 29.9 µM [inhibitor, single point].

For `Cn1c2ccccc2c2ccc3c(c21)C(=O)C=CC3=O`, which Potency is on record?
The Potency was active: 11.9 µM.

With `CC(=O)N1CCSc2ccc(S(=O)(=O)NCc3ccc(F)cc3)cc21` as the compound, how does the Potency read?
The Potency was inconclusive: 26.7 µM [inhibitor, single point].

Which max response, negative = inhibition does the source give for `CCOc1ncccc1C(=O)Nc1ccc(OC)c(S(=O)(=O)N2CCCCC2)c1` here?
The max response, negative = inhibition was inactive: 2.88%.

`CC(=O)N(C1=C(Cl)C(=O)c2ccccc2C1=O)c1ccc(C(=O)O)cc1` was tested. Which Potency did it give?
The Potency was active: 2.99 µM.

How did the max response, negative = inhibition turn out when `Brc1cc2c(cc1/C=N/Nc1nc(N3CCOCC3)nc(N3CCOCC3)n1)OCO2` was run?
The max response, negative = inhibition was inactive: -8.14%.

How did the Potency turn out when `Cn1cccc1C(=O)NC(=O)COC(=O)Cc1coc2ccc3ccccc3c12` was run?
The Potency was inconclusive: 21.2 µM [inhibitor, partial curve].

For `Cc1cccc(NS(=O)(=O)c2ccc(C)c(C(=O)NCC(c3cccs3)N(C)C)c2)c1` (stereo unspecified), which max response, negative = inhibition is on record?
The max response, negative = inhibition was inactive: -10.2%.

Which Potency does the source give for `CC1Cc2ccccc2N1C(=O)CSc1nnc(NC(=O)Cc2cccs2)s1` (stereo unspecified) here?
The Potency was active: 29.9 µM.

How did the Potency turn out when `COc1cc(/C=C2\C(=N)N3N=C(S(C)(=O)=O)SC3=NC2=O)ccc1OC(=O)c1ccco1` was run?
Its Potency is inconclusive: 26.7 µM [inhibitor, single point].

`CC1(OC(=O)C2CCCC2)C(=O)C=C2C=C(c3ccsc3)N(Cc3ccccc3)C=C2C1=O` (stereo unspecified) was tested. Which max response, negative = inhibition did it give?
The max response, negative = inhibition was inconclusive: -33.6% [inhibitor].

For `O=C(CSc1ccccc1Cl)c1ccco1`, which Potency is on record?
Its Potency is active: 21.2 µM.

With `CC(C)C(=O)NC(=S)Nc1ccccc1C(=O)NC1CCCCC1` as the compound, how does the Potency read?
Its Potency is inconclusive: 21.2 µM [inhibitor, partial curve, poor fit].

With `COc1ccc(F)cc1S(=O)(=O)n1nnc2ccccc21` as the compound, how does the Potency read?
The Potency was inconclusive: 18.9 µM [inhibitor, partial curve].

How did the Potency turn out when `NC(=O)C1CCN(C(=O)CSc2nc3ccccc3s2)CC1` was run?
Its Potency is inconclusive: 31.6 µM [inhibitor, single point].

How did the Potency turn out when `O=c1c2cc(Cl)ccc2[nH]c(=S)n1Cc1ccco1` was run?
The Potency was inconclusive: 2.12 µM [inhibitor, partial curve].

How did the Potency turn out when `O=C(CCN1C(=O)C2C3C=CC(C3)C2C1=O)Nc1ccc2c(c1)OCO2` (stereo unspecified) was run?
The Potency was inconclusive: 23.8 µM [inhibitor, partial curve].

How did the Potency turn out when `COc1ccc(S(=O)(=O)Nc2ccc(O)c3ccccc23)cc1` was run?
The Potency was active: 26.7 µM.

With `Oc1ccc(-c2n[nH]c(=S)n2-c2ccc3c(c2)OCCO3)cc1` as the compound, how does the Potency read?
The Potency was inconclusive: 29.9 µM [inhibitor, partial curve].

Which max response, negative = inhibition does the source give for `CC(C)(C)c1ccc(S(=O)(=O)n2c(CN3CCOCC3)nc3ccccc32)cc1` here?
The max response, negative = inhibition was inactive: -15.2%.

With `CCN1CCN(C(c2ccc(OC)c(OC)c2)c2nnnn2C(C)(C)C)CC1` (stereo unspecified) as the compound, how does the Potency read?
Its Potency is inconclusive: 23.8 µM [inhibitor, single point].

With `COc1ccc2c(c1)cc(C(=O)N/N=C/c1c(O)c(C(=O)O)cc3ccccc13)n2C` as the compound, how does the Potency read?
Its Potency is inconclusive: 37.7 µM [inhibitor, single point].

With `O=C(Cn1nnc(-c2cc(C(F)(F)F)cc(C(F)(F)F)c2)n1)NNC(=S)Nc1ccc(Cl)cc1` as the compound, how does the Potency read?
The Potency was inconclusive: 26.7 µM [inhibitor, single point].

For `CCCC1C2C(=O)N(c3ccc(OC)cc3)C(=O)C2ON1c1ccccc1` (stereo unspecified), which max response, negative = inhibition is on record?
Its max response, negative = inhibition is inactive: -6.29%.

For `COc1ccc(NC(=O)c2cc([N+](=O)[O-])ccc2N2CCCC2)cc1S(N)(=O)=O`, which max response, negative = inhibition is on record?
The max response, negative = inhibition was inactive: -0.183%.

How did the max response, negative = inhibition turn out when `COC(=O)c1[nH]c2ccccc2c1NC(=O)CN1CCN(c2cccc(OC)c2)C(C)C1` (stereo unspecified) was run?
Its max response, negative = inhibition is inactive: -10.4%.

Which Potency does the source give for `COc1ccc(C2CC(=O)c3c(C)nc(N4CCN(c5ccccc5)CC4)nc3C2)cc1` (stereo unspecified) here?
Its Potency is inconclusive: 33.6 µM [inhibitor, partial curve].

`CC(C(=O)C12CC3CC(CC(C3)C1)C2)N1CCOCC1` (stereo unspecified) was tested. Which Potency did it give?
Its Potency is active: 21.2 µM.

How did the max response, negative = inhibition turn out when `OC(CNCCc1ccccc1)c1ccccc1` (stereo unspecified) was run?
The max response, negative = inhibition was inactive: -4.62%.

Which Potency does the source give for `CCS(=O)(=O)C1=NSC2=NC(=O)/C(=C\c3cc(C)n(-c4cccc(OC)c4)c3C)C(=N)N21` here?
Its Potency is inconclusive: 4.23 µM [inhibitor, full curve].

How did the Potency turn out when `Cc1cc(/C=C(/C#N)C(=O)O)c(C)n1-c1cccc2ccccc12` was run?
Its Potency is inconclusive: 26.7 µM [inhibitor, single point].

With `Cc1cc(N2C(=O)C(=O)/C(=C(/O)c3ccc(F)cc3)C2c2cccc(Br)c2)no1` (stereo unspecified) as the compound, how does the Potency read?
The Potency was inconclusive: 29.9 µM [inhibitor, single point].

For `Cc1noc(NS(=O)(=O)c2ccc(N/C=C\C(=O)c3ccccc3)cc2)c1C`, which max response, negative = inhibition is on record?
Its max response, negative = inhibition is inconclusive: -32.1% [inhibitor].

For `O=C(CN(C(=O)CNS(=O)(=O)c1ccc(F)cc1)c1cccc(F)c1)NCC1CCCO1` (stereo unspecified), which max response, negative = inhibition is on record?
The max response, negative = inhibition was inactive: -3.26%.

`CN(Cc1ccccc1)c1oc(COc2ccccc2F)nc1C#N` was tested. Which Potency did it give?
The Potency was inconclusive: 37.7 µM [inhibitor, single point].

Which Potency does the source give for `FC(F)(F)c1ccccc1Cc1c(-c2ccco2)nc2ccc(Br)cn12` here?
Its Potency is active: 26.7 µM.

With `N=C1/C(=C/c2cccs2)C(=O)N=C2SN=C(SCc3ccccc3)N12` as the compound, how does the Potency read?
Its Potency is active: 26.7 µM.

`CCCOc1ccc(CSc2ncn[nH]2)cc1` was tested. Which Potency did it give?
Its Potency is active: 2.67 µM.

For `O=C(Cc1ccsc1)Nc1ccccc1F`, which Potency is on record?
Its Potency is active: 26.7 µM.

`S=c1[nH]nc(COc2ccccc2)n1/N=C/c1c(Cl)cccc1Cl` was tested. Which Potency did it give?
Its Potency is inconclusive: 18.9 µM [inhibitor, partial curve].

`N#Cc1ccccc1NC(=S)NC(=O)C1CCC1` was tested. Which Potency did it give?
Its Potency is inconclusive: 26.7 µM [inhibitor, partial curve].

Which Potency does the source give for `O=C(O)c1cc([N+](=O)[O-])cc2ccccc12` here?
Its Potency is active: 18.9 µM.

`Cc1ccccc1NC(=S)C1=C(O)c2sccc2N(C)S1(=O)=O` was tested. Which Potency did it give?
The Potency was inconclusive: 0.844 µM [inhibitor, full curve, poor fit].

For `CCSc1nc2cc(S(=O)(=O)N3CCOCC3)ccc2o1`, which Potency is on record?
Its Potency is active: 2.99 µM.

For `N#Cc1ccc(C(=O)Nc2cc(S(=O)(=O)Nc3ccc(Cl)cc3)ccc2N2CCCCC2)cc1`, which Potency is on record?
The Potency was active: 5.97 µM.

How did the max response, negative = inhibition turn out when `CC(=O)NC(C(=O)c1ccccc1)C(=O)c1ccccc1` was run?
Its max response, negative = inhibition is inactive: -1.47%.

With `C[C@H](NC(=O)C1CCN(S(=O)(=O)c2ccccc2)CC1)C(=O)NCc1ccccc1` as the compound, how does the Potency read?
Its Potency is inconclusive: 23.8 µM [inhibitor, single point].

For `CSc1ccccc1NC(=O)CSc1n[nH]c(C)c1[N+](=O)[O-]`, which Potency is on record?
Its Potency is inconclusive: 23.8 µM [inhibitor, partial curve].

With `Cc1ccc(-c2csc(N3CCN(c4cc5c(cc4Cl)nc(C)n5CCN4CCCCC4)CC3)n2)cc1` as the compound, how does the Potency read?
The Potency was inconclusive: 29.9 µM [inhibitor, partial curve].

For `O=C(C[n+]1cc(Br)cc2ccccc21)c1ccc(Cl)cc1`, which Potency is on record?
The Potency was inconclusive: 16.8 µM [inhibitor, partial curve].

With `FC(F)(F)c1ccccc1/C=N/n1c(C2CCCCC2)n[nH]c1=S` as the compound, how does the Potency read?
Its Potency is active: 26.7 µM.

How did the Potency turn out when `Cc1nc2ncccn2c1-c1csc(NCc2ccco2)n1` was run?
Its Potency is inconclusive: 21.2 µM [inhibitor, partial curve].

`O=C(N/N=C/c1ccco1)/C(=C/c1cccc([N+](=O)[O-])c1)NC(=O)c1ccccc1` was tested. Which max response, negative = inhibition did it give?
The max response, negative = inhibition was inactive: -4.18%.

For `CC(C)c1nnc(SCC(=O)N2CCc3ccccc32)n1N`, which Potency is on record?
Its Potency is inconclusive: 23.8 µM [inhibitor, partial curve].

`COc1ccc(OCCNc2cc(N3CCOCC3)ccc2[N+](=O)[O-])cc1` was tested. Which max response, negative = inhibition did it give?
Its max response, negative = inhibition is inactive: -27.4%.

`CC(=O)N1CCc2cc(S(=O)(=O)CCC(=O)NCc3ccc(C)o3)ccc21` was tested. Which max response, negative = inhibition did it give?
The max response, negative = inhibition was inactive: -19.2%.

How did the Potency turn out when `CCC(=O)N1CCc2cc(S(=O)(=O)N3CCN(C(=O)c4ccco4)CC3)ccc21` was run?
The Potency was inconclusive: 23.8 µM [inhibitor, partial curve, poor fit].

`O=C(NC1(C(F)(F)F)OCCO1)c1ccc(F)cc1` was tested. Which Potency did it give?
Its Potency is inconclusive: 29.9 µM [inhibitor, partial curve].

For `CC(=O)c1ccc(NC(=S)Nc2cccc(S(=O)(=O)Nc3c(C)n(C)n(-c4ccccc4)c3=O)c2)cc1`, which Potency is on record?
Its Potency is active: 23.8 µM.

For `COc1cc(OC)c(NC(=O)CCNC(=O)Cn2cnc3ccccc3c2=O)cc1Cl`, which Potency is on record?
Its Potency is active: 13.4 µM.

`COc1cccc(-c2cc(C(=O)Nc3cc(C)n(Cc4ccc(Cl)cc4)n3)no2)c1` was tested. Which max response, negative = inhibition did it give?
The max response, negative = inhibition was inactive: -6.12%.

`COc1ccc(C2(CNC(=O)C(=O)Nc3ccc(C)cc3)CCOCC2)cc1` was tested. Which Potency did it give?
Its Potency is active: 23.8 µM.
